Measurements: PubChem BioAssay AID256 (DTP/NCI, 2004)
The list does not hold the whole screen: it gathers tests that were run many times, whatever their T/C, doses with no T/C, and many T/C values between a quarter and a half above the control. Other doses and runs of a compound stand elsewhere. T/C: endpoint of the treated group in % of that of the vehicle group. Some entries give survivors of the animals treated and no T/C: the source files T/C as zero there, which appears to mark a toxic dose or a test without result, not a measured value. Some doses without a T/C left all or most animals alive at the check, yet need not have been tolerated: survival well below the control is almost never listed, so the zero probably covers shortened survival too. Counts of survivors are from the toxicity check (mostly the fifth day) where no day follows; animals may have died later. Schedule codes are those of the source, read here as Q, the interval in days (D) or hours (H), X, the number of doses. Some entries hold several experiments; the results are listed from low to high. Where survival is the endpoint, this PubChem deposit counts one and a half times the control or more as active, and values a quarter to a half above the control carry no call in these data; other NCI protocols may use other cut-offs. Some T/C values are followed by the survivors on the day toxicity was checked, most often the fifth; where none is given, no animal had died by that day. Signs of the kind (2×) say how often a value occurs here.

Tested on: CD2F1 mice, L1210 leukemia ip, survival T/C
Test: NCI In Vivo Anticancer Drug Screen. Data for tumor model L1210 Leukemia (intraperitoneal) in CD2F1 (CDF1) mice
Conditions: higher T/C = longer survival
Method in brief: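 Antitumor effect is scored in animals hosting a serially transplanted tumor. Values compare compound-dosed animals against vehicle-only controls as a simple quotient.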

CN(C)/N=N/c1nc[nH]c1C(N)=O
T/C (T/C endpoint: mean survival time, dose: 25.0 mg/kg/injection, schedule: Q01DX009 (ip), vehicle: other, evaluated on day 30): 102, 108, 112, 118, 120 [5 of 6 alive], 121, 122, 124, 125, 128, 129, 131, 134, 142 % of control
T/C (T/C endpoint: mean survival time, dose: 25.0 mg/kg/injection, schedule: Q01DX009 (ip), vehicle: other, evaluated on day 45): 133 % of control
T/C (T/C endpoint: mean survival time, dose: 37.5 mg/kg/injection, schedule: Q01DX009 (ip), vehicle: Klucel (hydroxypropylcellulose) (HPC)): 143 % of control
T/C (T/C endpoint: mean survival time, dose: 50.0 mg/kg/injection, schedule: Q01DX005 (ip), vehicle: saline, evaluated on day 5): 113 and 125 % of control
T/C (T/C endpoint: mean survival time, dose: 50.0 mg/kg/injection, schedule: Q01DX005 (ip), vehicle: saline, evaluated on day 30): 113 and 125 % of control
T/C (T/C endpoint: mean survival time, dose: 50.0 mg/kg/injection, schedule: Q01DX007 (ip), vehicle: saline): 139 % of control
T/C (T/C endpoint: mean survival time, dose: 50.0 mg/kg/injection, schedule: Q01DX009 (ip), vehicle: DMSO): 129 % of control
T/C (T/C endpoint: mean survival time, dose: 50.0 mg/kg/injection, schedule: Q01DX009 (ip), vehicle: Klucel (hydroxypropylcellulose) (HPC)): 112, 117 (2×), 121, 122, 124, 125 (2×), 136, 137 (2×), 140, 144, 162 % of control [5 of 6 alive]
T/C (T/C endpoint: mean survival time, dose: 50.0 mg/kg/injection, schedule: Q01DX009 (ip), vehicle: other, evaluated on day 30): 118, 128, 130, 133, 133 [5 of 6 alive], 134, 138, 141, 142, 143, 146, 147 (2×), 150, 164 % of control
T/C (T/C endpoint: mean survival time, dose: 50.0 mg/kg/injection, schedule: Q01DX009 (ip), vehicle: other, evaluated on day 45): 150 % of control
T/C (T/C endpoint: mean survival time, dose: 50.0 mg/kg/injection, schedule: Q01DX009 (ip), vehicle: saline): 131 % of control
T/C (T/C endpoint: mean survival time, dose: 50.0 mg/kg/injection, schedule: Q01DX009 (ip), vehicle: water): 127 % of control
T/C (T/C endpoint: mean survival time, dose: 50.0 mg/kg/injection, schedule: Q01DX009 (oral), vehicle: steroid suspending solution): 127 % of control
T/C (T/C endpoint: mean survival time, dose: 50.0 mg/kg/injection, schedule: Q03HX024 (ip), vehicle: steroid suspending solution): 128 % of control
T/C (T/C endpoint: mean survival time, dose: 50.0 mg/kg/injection, schedule: Q03HX024 (oral), vehicle: steroid suspending solution): 134 % of control
T/C (T/C endpoint: mean survival time, dose: 65.0 mg/kg/injection, schedule: Q01DX009 (ip), vehicle: carboxymethylcellulose (CMC)): 145 % of control
T/C (T/C endpoint: mean survival time, dose: 75.0 mg/kg/injection, schedule: Q01DX009 (ip), vehicle: Klucel (hydroxypropylcellulose) (HPC)): 137 % of control
T/C (T/C endpoint: mean survival time, dose: 91.0 mg/kg/injection, schedule: Q01DX009 (ip), vehicle: Klucel (hydroxypropylcellulose) (HPC)): 143 % of control
T/C (T/C endpoint: mean survival time, dose: 100.0 mg/kg/injection, schedule: Q01DX005 (ip), vehicle: other): 130 % of control
T/C (T/C endpoint: mean survival time, dose: 100.0 mg/kg/injection, schedule: Q01DX005 (ip), vehicle: saline, evaluated on day 5): 139 and 147 % of control
T/C (T/C endpoint: mean survival time, dose: 100.0 mg/kg/injection, schedule: Q01DX005 (ip), vehicle: saline, evaluated on day 30): 140 and 147 % of control
T/C (T/C endpoint: mean survival time, dose: 100.0 mg/kg/injection, schedule: Q01DX007 (ip), vehicle: saline): 139 % of control
T/C (T/C endpoint: mean survival time, dose: 100.0 mg/kg/injection, schedule: Q01DX009 (ip), vehicle: DMSO): 129 and 141 % of control
T/C (T/C endpoint: mean survival time, dose: 100.0 mg/kg/injection, schedule: Q01DX009 (ip), vehicle: Klucel (hydroxypropylcellulose) (HPC)): 122, 123, 126, 133, 137 (2×), 140, 145, 146, 148, 153, 154, 166, 210 % of control
T/C (T/C endpoint: mean survival time, dose: 100.0 mg/kg/injection, schedule: Q01DX009 (ip), vehicle: other, evaluated on day 30): 111, 138, 141, 142, 143, 145, 149, 150 (2×), 155, 158, 161, 168, 170 % of control (2×)
T/C (T/C endpoint: mean survival time, dose: 100.0 mg/kg/injection, schedule: Q01DX009 (ip), vehicle: other, evaluated on day 45): 150 % of control
T/C (T/C endpoint: mean survival time, dose: 100.0 mg/kg/injection, schedule: Q01DX009 (ip), vehicle: saline): 125 and 147 % of control
T/C (T/C endpoint: mean survival time, dose: 100.0 mg/kg/injection, schedule: Q01DX009 (ip), vehicle: steroid suspending solution): 140 % of control
T/C (T/C endpoint: mean survival time, dose: 100.0 mg/kg/injection, schedule: Q01DX009 (ip), vehicle: water): 137 % of control
T/C (T/C endpoint: mean survival time, dose: 100.0 mg/kg/injection, schedule: Q01DX009 (oral), vehicle: steroid suspending solution): 148 % of control
T/C (T/C endpoint: mean survival time, dose: 100.0 mg/kg/injection, schedule: Q04DX003 (ip), vehicle: water): 125 % of control
T/C (T/C endpoint: mean survival time, dose: 182.0 mg/kg/injection, schedule: Q01DX009 (ip), vehicle: Klucel (hydroxypropylcellulose) (HPC)): 127 % of control
T/C (T/C endpoint: mean survival time, dose: 200.0 mg/kg/injection, schedule: Q01DX001 (ip), vehicle: distilled water + Tween-80): 127 % of control
T/C (T/C endpoint: mean survival time, dose: 200.0 mg/kg/injection, schedule: Q01DX005 (ip), vehicle: other): 138 % of control
T/C (T/C endpoint: mean survival time, dose: 200.0 mg/kg/injection, schedule: Q01DX005 (ip), vehicle: saline, evaluated on day 5): 155 and 162 % of control
T/C (T/C endpoint: mean survival time, dose: 200.0 mg/kg/injection, schedule: Q01DX005 (ip), vehicle: saline, evaluated on day 30): 155 and 162 % of control
T/C (T/C endpoint: mean survival time, dose: 200.0 mg/kg/injection, schedule: Q01DX009 (ip), vehicle: DMSO): 137 % of control
T/C (T/C endpoint: mean survival time, dose: 200.0 mg/kg/injection, schedule: Q01DX009 (ip), vehicle: Klucel (hydroxypropylcellulose) (HPC)): 109, 121, 125, 127, 134, 137, 138, 140, 150 (2×), 154, 164, 176, 213 % of control
T/C (T/C endpoint: mean survival time, dose: 200.0 mg/kg/injection, schedule: Q01DX009 (ip), vehicle: other, evaluated on day 30): 98, 119, 131, 134, 139, 140, 157, 161 (2×), 164, 165, 166, 168, 172, 183 % of control
T/C (T/C endpoint: mean survival time, dose: 200.0 mg/kg/injection, schedule: Q01DX009 (ip), vehicle: other, evaluated on day 45): 165 % of control
T/C (T/C endpoint: mean survival time, dose: 200.0 mg/kg/injection, schedule: Q01DX009 (ip), vehicle: saline): 133 % of control
T/C (T/C endpoint: mean survival time, dose: 200.0 mg/kg/injection, schedule: Q03DX003 (ip), vehicle: saline): 136 % of control
T/C (T/C endpoint: mean survival time, dose: 200.0 mg/kg/injection, schedule: Q04DX003 (ip), vehicle: other): 125 and 132 % of control
T/C (T/C endpoint: mean survival time, dose: 200.0 mg/kg/injection, schedule: Q04DX003 (ip), vehicle: saline): 127 % of control
T/C (T/C endpoint: mean survival time, dose: 200.0 mg/kg/injection, schedule: Q04DX003 (ip), vehicle: water): 138 % of control
T/C (T/C endpoint: mean survival time, dose: 300.0 mg/kg/injection, schedule: Q01DX009 (ip), vehicle: Klucel (hydroxypropylcellulose) (HPC)): 129 % of control
T/C (T/C endpoint: mean survival time, dose: 400.0 mg/kg/injection, schedule: Q01DX005 (ip), vehicle: saline, evaluated on day 5): 129 and 135 % of control
T/C (T/C endpoint: mean survival time, dose: 400.0 mg/kg/injection, schedule: Q01DX005 (ip), vehicle: saline, evaluated on day 30): 128 and 130 % of control
T/C (T/C endpoint: mean survival time, dose: 400.0 mg/kg/injection, schedule: Q01DX009 (ip), vehicle: DMSO): 134 % of control
T/C (T/C endpoint: mean survival time, dose: 400.0 mg/kg/injection, schedule: Q01DX009 (ip), vehicle: Klucel (hydroxypropylcellulose) (HPC)): 94 [4 of 6 alive], 109, 113, 114 [5 of 6 alive], 120, 121, 122, 123, 125, 127, 133, 134, 140 % of control (2×)
T/C (T/C endpoint: mean survival time, dose: 400.0 mg/kg/injection, schedule: Q01DX009 (ip), vehicle: other, evaluated on day 30): 98, 104 [5 of 6 alive], 105 [5 of 6 alive], 106, 118, 120 [5 of 6 alive], 122 [5 of 6 alive] (2×), 140 [4 of 6 alive], 140 % of control [5 of 6 alive]
T/C (T/C endpoint: mean survival time, dose: 400.0 mg/kg/injection, schedule: Q01DX009 (ip), vehicle: other, evaluated on day 45): 103 % of control [4 of 6 alive]
survivor count (T/C endpoint: mean survival time, dose: 400.0 mg/kg/injection, schedule: Q01DX009 (ip), vehicle: other): 1 of 6, 5 of 6, 3 of 3, 6 of 6
T/C (T/C endpoint: mean survival time, dose: 400.0 mg/kg/injection, schedule: Q01DX009 (ip), vehicle: steroid suspending solution): 144 % of control [7 of 8 alive]
T/C (T/C endpoint: mean survival time, dose: 400.0 mg/kg/injection, schedule: Q04DX003 (ip), vehicle: Klucel (hydroxypropylcellulose) (HPC)): 135 % of control
T/C (T/C endpoint: mean survival time, dose: 400.0 mg/kg/injection, schedule: Q04DX003 (ip), vehicle: other): 125 and 143 % of control
T/C (T/C endpoint: mean survival time, dose: 400.0 mg/kg/injection, schedule: Q04DX003 (ip), vehicle: steroid suspending solution): 135 % of control
T/C (T/C endpoint: mean survival time, dose: 400.0 mg/kg/injection, schedule: Q04DX003 (ip), vehicle: water): 132 % of control
T/C (T/C endpoint: mean survival time, dose: 400.0 mg/kg/injection, schedule: Q04DX003 (oral), vehicle: steroid suspending solution): 134 % of control
T/C (T/C endpoint: mean survival time, dose: 400.0 mg/kg/injection, schedule: Q08DX002 (oral), vehicle: steroid suspending solution): 129 % of control
survivor count (T/C endpoint: mean survival time, dose: 546.0 mg/kg/injection, schedule: Q01DX009 (ip), vehicle: Klucel (hydroxypropylcellulose) (HPC)): 10 of 10
T/C (T/C endpoint: mean survival time, dose: 800.0 mg/kg/injection, schedule: Q04DX003 (ip), vehicle: steroid suspending solution): 149 % of control [7 of 8 alive]
T/C (T/C endpoint: mean survival time, dose: 800.0 mg/kg/injection, schedule: Q04DX003 (oral), vehicle: steroid suspending solution): 135 % of control
T/C (T/C endpoint: mean survival time, dose: 1200.0 mg/kg/injection, schedule: Q01DX001 (oral), vehicle: saline): 133 % of control
T/C (T/C endpoint: median survival time, dose: 50.0 mg/kg/injection, schedule: Q03HX008 (ip), vehicle: Klucel (hydroxypropylcellulose) (HPC)): 127 % of control
T/C (T/C endpoint: median survival time, dose: 75.0 mg/kg/injection, schedule: Q03HX008 (ip), vehicle: Klucel (hydroxypropylcellulose) (HPC)): 131 % of control [8 of 9 alive]
T/C (T/C endpoint: median survival time, dose: 160.0 mg/kg/injection, schedule: Q01DX005 (ip), vehicle: Klucel (hydroxypropylcellulose) (HPC)): 135 % of control
T/C (T/C endpoint: median survival time, dose: 200.0 mg/kg/injection, schedule: Q02DX005 (ip), vehicle: Klucel (hydroxypropylcellulose) (HPC)): 144 % of control
T/C (T/C endpoint: median survival time, dose: 240.0 mg/kg/injection, schedule: Q01DX005 (ip), vehicle: Klucel (hydroxypropylcellulose) (HPC)): 129 % of control
T/C (T/C endpoint: median survival time, dose: 400.0 mg/kg/injection, schedule: Q02DX005 (ip), vehicle: Klucel (hydroxypropylcellulose) (HPC)): 127 % of control
